Experiment: general procedure: peptide synthesis; succinimidyl active esters (EDC/NHS) with DIPEA in DMSO
Conditions: conjugation step

Row | Substance | conjugation yield (run 1) | conjugation yield (run 2)
1 | BP-Pen-AHx-DBI | 64% | 57%
2 | Re-BP-Pen-AHx-DBI | 65% | 38%

Reference: patent US20120100071A1 (priority 2009, published 2012)
